Record: PubChem BioAssay AID504784 (Drosophila RNAi Screening Center, 2011)

- Screen: 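Search for regulators of lipid droplet storage in oleate-fed fly cells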 (primary screen)
- Cell system: Drosophila Kc167 embryonic cells
- Reagent: long dsRNA against Drosophila genes, about 250 ng dsRNA per well
- Timing: 4 days
- Challenge: cells fed 400 µM oleic acid bound to BSA
- Read-out: 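Cells imaged and segmented; ratio of lipid droplet area to nuclear area, log-transformed, then normalised as a B-score over the screen; higher means more stored lipid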
- Reading the numbers: droplet/nuclear area B-score: higher = more stored lipid (overstorage)
The deposit covers about 17,000 reagents; below is an unselected part of those with a known target gene and a result. 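Each column is one replicate's B-score; the combined score over replicates was not deposited, so single values may mislead.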 Names joined by + are all predicted targets of the reagent. Not all columns of the deposit are shown.

CG34210 [DRSC04579]: droplet/nuclear area B-score, replicate 1 = 0.244
RhoGAP15B [DRSC19924]: droplet/nuclear area B-score, replicate 1 = -0.283
RhoGAP15B [DRSC19925]: droplet/nuclear area B-score, replicate 1 = -1.81
CG10102 (retired record) [DRSC05963]: droplet/nuclear area B-score, replicate 1 = -1.77
CG13230 [DRSC06350]: droplet/nuclear area B-score, replicate 1 = -0.082
retn [DRSC04679]: droplet/nuclear area B-score, replicate 1 = 0.248
CG8519 [DRSC10985]: droplet/nuclear area B-score, replicate 1 = -0.764
Gr98d [DRSC14571]: droplet/nuclear area B-score, replicate 1 = 0.684
Best3 [DRSC09880]: droplet/nuclear area B-score, replicate 1 = 3.29
CG32638 [DRSC18968]: droplet/nuclear area B-score, replicate 1 = -1.34
CG5402 [DRSC15792]: droplet/nuclear area B-score, replicate 1 = 1.97
Cpr47Ec [DRSC07332]: droplet/nuclear area B-score, replicate 1 = 1.17
CG31365 [DRSC15610]: droplet/nuclear area B-score, replicate 1 = 1.94
vih [DRSC09778]: droplet/nuclear area B-score, replicate 1 = 0.537

3 entries from above, arranged by “droplet/nuclear area B-score, replicate 1”, lowest first:
Cpr47Ec [DRSC07332]: droplet/nuclear area B-score, replicate 1 = 1.17
CG31365 [DRSC15610]: droplet/nuclear area B-score, replicate 1 = 1.94
CG5402 [DRSC15792]: droplet/nuclear area B-score, replicate 1 = 1.97

The results go on.
Ir56c [DRSC06544]: droplet/nuclear area B-score, replicate 1 = 1.89
CG10859 [DRSC02110]: droplet/nuclear area B-score, replicate 1 = -2.29
Ir56d [DRSC06590]: droplet/nuclear area B-score, replicate 1 = 2.01
Mlc-c [DRSC18683]: droplet/nuclear area B-score, replicate 1 = -0.487
Poc1 [DRSC09713]: droplet/nuclear area B-score, replicate 1 = -1.25
CG32971 [DRSC01372]: droplet/nuclear area B-score, replicate 1 = 2.36
ced-6 [DRSC07591]: droplet/nuclear area B-score, replicate 1 = 0
COX6AL2 + Ir75d [DRSC10081]: droplet/nuclear area B-score, replicate 1 = 1.84
CG32606 (retired record) [DRSC19001]: droplet/nuclear area B-score, replicate 1 = -0.0162
CG32606 (retired record) [DRSC19371]: droplet/nuclear area B-score, replicate 1 = -0.523
CG32606 (retired record) [DRSC19372]: droplet/nuclear area B-score, replicate 1 = -0.412
CG32606 (retired record) [DRSC19373]: droplet/nuclear area B-score, replicate 1 = 0.798
CG32606 (retired record) [DRSC23035]: droplet/nuclear area B-score, replicate 1 = -0.435
